Measurements reported in PubChem BioAssay AID504808 (Drosophila RNAi Screening Center, 2011).

- Test: 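Genes whose loss lifts activity of an E2F-responsive reporter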 (primary screen)
- System: Drosophila S2 cells
- Reagents: long dsRNA against Drosophila genes
- Detection: 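Dual luciferase plate measurements; E2F-specific signal taken as firefly over Renilla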
- Direction: E2F firefly: higher = more E2F reporter activity; Renilla normaliser: higher = more normaliser reporter signal
- Rule for the call: 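a knock-down counted as active when the firefly/Renilla E2F signal rose above 50%, a threshold chosen arbitrarily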
The deposit covers about 21,000 reagents; below is a random part of those that have a named target and a result. In the full data, 18 (0.084%) are marked active. 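Raw counts without plate normalisation, one of two replicates; the ratio scores behind the calls were not deposited.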 A plus sign joins genes that one reagent is predicted to hit. Not given: the amount of reagent, the time to read-out.

no.	Gene	DRSC id	E2F firefly, rep 1	Renilla normaliser, rep 1	Call
1	MYPT-75D (Myosin phosphatase targeting subunit 75D)	DRSC10743	73616	3960	inactive
2	CG4942	DRSC10462	80024	3996	inactive
3	CG7550	DRSC10875	1.04e5	4240	inactive
4	CG8958	DRSC20134	1.57e5	6652	inactive
5	CG6696	DRSC20004	1.29e5	5297	inactive
6	egg (eggless)	DRSC04119	88418	3281	inactive
7	CG6843	DRSC10725	1.55e5	6098	inactive
8	CG15642	DRSC19678	1.34e5	6257	inactive
9	Liprin-alpha	DRSC02132	94284	3808	inactive
10	Mcm10 (Minichromosome maintenance 10)	DRSC03162	82893	3554	inactive
11	CG33299	DRSC01085	1.33e5	6182	inactive
12	Sys1 (Sys1 golgi trafficking protein)	DRSC14372	1.35e5	6756	inactive
13	snRNP-U1-C (small ribonucleoprotein particle U1 subunit C)	DRSC15804	1.08e5	6976	inactive
14	CG4666	DRSC18379	1.05e5	6178	inactive
15	CG12204	DRSC19442	1.55e5	6341	inactive
16	CG14471 (retired record)	DRSC04865	1.01e5	4279	inactive
17	Ufd1 (Ubiquitin fusion-degradation 1-like)	DRSC10607	82087	3772	inactive
18	CG12935	DRSC06248	3309	36	inactive
19	CG9213	DRSC20170	8940	812	inactive
20	CG13126	DRSC02222	1.61e5	5255	inactive
21	ush (u-shaped)	DRSC00843	71088	3926	inactive
22	CG8641	DRSC11028	90025	3656	inactive
23	CG13713	DRSC08322	1.05e5	4449	inactive
24	MFS18 (Major Facilitator Superfamily Transporter 18)	DRSC00452	93341	3853	inactive
25	CG9399	DRSC16488	1.48e5	6808	inactive
26	upd1 (unpaired 1)	DRSC20358	1.54e5	7304	inactive
27	ND-24L (NADH dehydrogenase (ubiquinone) 24 kDa subunit-like)	DRSC10650	1.40e5	6123	inactive
28	dlg1 (discs large 1)	DRSC18895	86731	3223	inactive
29	dlg1 (discs large 1)	DRSC18896	78229	2626	inactive
30	dlg1 (discs large 1)	DRSC19767	1.45e5	5879	inactive
31	dlg1 (discs large 1)	DRSC20324	8501	752	inactive
32	CG42241 (retired record)	DRSC04007	1.39e5	6065	inactive
33	CG4000	DRSC15535	1.25e5	6040	inactive
34	CG31278	DRSC16051	1.34e5	6235	inactive
35	CG14491	DRSC06462	1.65e5	5194	inactive
36	Vha100-1 (Vacuolar H[+] ATPase 100kD subunit 1)	DRSC14148	1773	1032	inactive
37	Stacl + CG8179 (retired record)	DRSC07091	56392	3273	inactive
38	alphaTry (alphaTrypsin)	DRSC07577	1.10e5	4396	inactive
39	sgll (sugarlethal)	DRSC15442	1.44e5	6976	inactive
40	Ggamma30A (G protein gamma subunit 30A)	DRSC02715	1.46e5	5606	inactive
41	Ggamma30A (G protein gamma subunit 30A)	DRSC03331	1.48e5	4722	inactive
42	t (tan)	DRSC17815	1.26e5	5277	inactive
43	ATP8 (retired record)	DRSC21277	1.39e5	6650	inactive
44	CG6138	DRSC02933	1.65e5	5442	inactive
45	Cpr72Ec (Cuticular protein 72Ec)	DRSC10449	83971	3684	inactive
46	CG14562	DRSC11723	1.36e5	6614	inactive
47	IKKepsilon (I-kappaB kinase epsilon)	DRSC03550	96779	3779	inactive
48	CG7627	DRSC03065	1.11e5	4696	inactive
49	Eip75B (Ecdysone-induced protein 75B)	DRSC11161	54914	2896	inactive
50	CG31251	DRSC16247	1.40e5	8446	inactive
51	Ctr9	DRSC08562	64824	3921	inactive
52	CG11983	DRSC14458	1.39e5	7604	inactive
53	Egm (Enigma)	DRSC07319	2956	198	inactive
54	Cypl (Cyclophilin-like)	DRSC08362	98231	4302	inactive
55	orion	DRSC18213	1.22e5	5425	inactive
56	orion	DRSC18214	1.09e5	4903	inactive
57	CG13367	DRSC18485	1.24e5	5892	inactive
58	CG13367	DRSC18486	51613	3826	inactive
59	mon2 (monensin sensitivity 2)	DRSC03112	1.36e5	5316	inactive
60	schuy (schumacher-levy)	DRSC10284	1.30e5	6484	inactive
61	CG8814	DRSC00707	82208	3346	inactive
62	Obp56h (Odorant-binding protein 56h)	DRSC06433	1.34e5	4766	inactive
63	ODA-Dnal1 (Outer dynein arm dynein axonemal light chain 1)	DRSC07270	1.41e5	4944	inactive
64	CG4199	DRSC18519	2280	944	inactive
65	CG7492	DRSC10855	76966	3379	inactive
66	CG15705	DRSC06576	1.54e5	4394	inactive
67	alpha-Est4aPsi (pseudo)	DRSC12473	68012	4322	inactive
68	CG15715	DRSC10216	1.56e5	6452	inactive
69	CG32564	DRSC19933	1.59e5	7971	inactive
70	RpS17 (Ribosomal protein S17)	DRSC11271	68626	7007	inactive
71	ppk7 (pickpocket 7)	DRSC03236	1.68e5	5675	inactive
72	chp (chaoptin)	DRSC16925	1985	924	inactive
73	CG14731	DRSC14952	1.38e5	5566	inactive
74	CG4793	DRSC01966	1.11e5	4202	inactive
75	Arpc3A (Actin-related protein 2/3 complex, subunit 3A)	DRSC15596	1.16e5	6299	inactive
76	tsl (torso-like)	DRSC17090	1.52e5	8107	inactive
77	CG5958	DRSC02915	1.37e5	5609	inactive
78	CG42458	DRSC10335	58649	2934	inactive
79	CG17221	DRSC00487	1.64e5	5398	inactive
80	CG32026	DRSC08950	1.30e5	4528	inactive
81	CG31688 + CG31687	DRSC02116	97777	3832	inactive
82	Su(Tpl) (Suppressor of Triplolethal)	DRSC10954	60994	3718	inactive
83	Syx1A (Syntaxin 1A)	DRSC15359	87446	6385	inactive
84	ArgRS-m (Arginyl-tRNA synthetase, mitochondrial)	DRSC14186	1.34e5	6054	inactive
85	Jhbp4 (Juvenile hormone binding protein 4)	DRSC14222	1.18e5	6159	inactive
86	CG9962	DRSC00739	1.68e5	6068	inactive
87	CG18666	DRSC02694	1.53e5	5280	inactive
88	Pkcdelta (Protein kinase C delta)	DRSC19356	72023	4070	inactive
89	Pkcdelta (Protein kinase C delta)	DRSC19399	1.19e5	6423	inactive
90	CG6959	DRSC16151	1.32e5	5455	inactive
91	Taf13 (TBP-associated factor 13)	DRSC02106	91472	3918	inactive
92	CG15546	DRSC15084	1.23e5	6793	inactive
93	Smyd3 (SET and MYND domain containing, class 3)	DRSC17744	1.05e5	4866	inactive
94	CG17784	DRSC15268	1.07e5	6138	inactive
95	nmd (no mitochondrial derivative)	DRSC02856	94331	4057	inactive
96	wds (will die slowly)	DRSC18852	1.90e5	7922	inactive
97	CG2202	DRSC19841	71190	768	inactive
98	Cyp6a21 (Cytochrome P450 6a21)	DRSC07381	1.07e5	4455	inactive
99	CG14811	DRSC17962	1.18e5	5922	inactive
100	Hsp110 (Heat shock protein 110)	DRSC11186	77493	3255	inactive
101	Dhit (Double hit)	DRSC07411	72936	3546	inactive
102	RhoGAP54D (Rho GTPase activating protein at 54D)	DRSC06990	1.38e5	4762	inactive
103	ND5 (retired record)	DRSC21281	1.37e5	6322	inactive
104	CG15602	DRSC19671	1.54e5	5674	inactive
105	CG15890	DRSC19737	1.51e5	5998	inactive
106	CG17919	DRSC12571	54010	3404	inactive
107	E2f1 (E2F transcription factor 1)	DRSC16655	24025	6177	inactive

Entries listed so far whose target name starts with A or a:
Gene	DRSC id	E2F firefly, rep 1	Renilla normaliser, rep 1	Call
alphaTry (alphaTrypsin)	DRSC07577	1.10e5	4396	inactive
ATP8 (retired record)	DRSC21277	1.39e5	6650	inactive
alpha-Est4aPsi (pseudo)	DRSC12473	68012	4322	inactive
Arpc3A (Actin-related protein 2/3 complex, subunit 3A)	DRSC15596	1.16e5	6299	inactive
ArgRS-m (Arginyl-tRNA synthetase, mitochondrial)	DRSC14186	1.34e5	6054	inactive
